# Test results taken from article PMC3326064.
# No constants are given. Whether binding was seen depends on the method and setting.
# T1: soybean 2S albumin large subunit (soybean) (UniProt P19594)
# T1 sequence: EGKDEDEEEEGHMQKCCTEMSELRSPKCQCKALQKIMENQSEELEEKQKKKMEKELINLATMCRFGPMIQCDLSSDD
# B1: lunasin purified from soybean white flake (44 amino acids, with C-terminal asparagine) (peptide)
# peptide: SKWQHQQDSCRKQLQGVNLTPCEKHIMEKIQGRGDDDDDDDDDN
# Biological target: T1, soybean 2S albumin large subunit (soybean)
# Assay: condition: only with the reducing agents BME, TCEP or DTT; SDS-PAGE after treatment with reducing agents; purified lunasin-containing complex (15.5 ug) treated for 1 hour at room temperature with BME (14.3-143 mM), TCEP (1-10 mM) or DTT (0.2-2 mM); both purified
binder,measurement,value
B1,binding,no binding
